Reference: patent US6866833B1, “Substituted thiourea complexing agent and a method for extracting a noble metal from a matrix using the complexing agent” (University College Cork, priority 1999, dated 2005)

Legend:
[1] = Supercritical fluid extraction of Au(III) as AuCl4^− from filter paper, gold determined by atomic absorption spectroscopy; conditions: for gold extraction: 450 atmospheres
Description: Gold Au(III) extraction by the ligand of the comparative Example (a) was investigated employing a BDH Gold (III) standard containing 1000 ppm Au(III) (aqueous AuCl4^−). Thus 60 μl of solution Au(III) containing 3.05×10^−7 moles Au(III) was applied to a 3 cm diameter filter paper. The filter paper was allowed to dry and then placed in a glass tube (2 cm×0.5 cm i.d.), plugged with glass wool at both ends. 20 mg of ligand of the comparative Example (a) (in excess of over 200 fold over Au(III) level) was then placed in the same glass tube and plugged with glass wool.
The extraction vessel was statically extracted for 20 minutes and then dynamically extracted into a collecting solvent of 4 ml methanol for 15 minutes (0.8 ml CO2/minute flow rate). The methanol solution was then made up to 10 ml using additional methanol. Levels of gold in solution were then determined by atomic absorption spectroscopy. The procedure was carried out at different pressures from 200-400 atm. The following extraction percentages were obtained:
The procedure in Example 5(a) was repeated except the temperature of the extraction procedure was varied from 60-120° C., while maintaining the pressure of the extractor at 400 atm. The following results were obtained:
The procedure in Example 6 was repeated with the ligand from Example 1 being used in place of the ligand of the Comparative Example (a). The following % extraction values were obtained at differing pressures for extraction of Au(III):
The procedure of Example 7 was repeated employing the ligand of Example 2 in place of the ligand of Example 1 and utilising 50 μl Au(III) standard solution in place of 60 μl to give the following % extraction results at differing pressures of SF—CO2 at 60° C.

[2] = Supercritical fluid extraction of elemental gold Au(O), without oxidant
[3] = Supercritical fluid extraction of Au(O) first oxidised to Au(I) by spiking with Fe(III); conditions: 11.2 mg Au(O) + 60 μl Fe(III) (1000 ppm) + 20 mg ligand
[4] = 60° C., 250 atm SF—CO2, 60 μl 1000 ppm Au(III), 20 mg ligand
[5] = 60° C., 60 μl 1000 ppm Au(III), 20 mg ligand
[6] = 11.2 mg solid Au(O) + 20 mg ligand, no Fe(III)
[7] = 60 μl Au(O) suspension on filter paper, 200 atm SF—CO2
[8] = 60 μl Au(O) suspension on filter paper, 250 atm SF—CO2
[9] = 60 μl Au(O) suspension on filter paper, 300 atm SF—CO2
[10] = 60 μl Au(O) suspension on filter paper, 350 atm SF—CO2
[11] = 60 μl Au(O) suspension on filter paper, 400 atm SF—CO2

**Q.** Which results are given for CCCCCCCCCCCCNC(=S)NC [Comparative Example (c), N-methyl, N′-dodecyl thiourea]?
**A.** Extraction [1, 4]: 2.6%; gold extraction [1, 5]: 1.3%

**Q.** Which Extraction ([1]; Example 7: 200 atm SF—CO2, Au(III), 20 mg ligand) does the source give for FC(F)(F)c1cc(NC(=S)NCC(F)(F)C(F)(F)C(F)(F)F)cc(C(F)(F)F)c1 [Example 1] here?
**A.** 61.2%

**Q.** What about the Extraction ([1]; Example 7: 250 atm SF—CO2, Au(III), 20 mg ligand) of the same compound?
**A.** 92.7%

**Q.** And the Extraction ([1]; Example 7: 300 atm SF—CO2, Au(III), 20 mg ligand)?
**A.** 83.7%

**Q.** What about the Extraction ([1]; Example 7: 350 atm SF—CO2, Au(III), 20 mg ligand) of the same compound?
**A.** 75.3%

**Q.** And the Extraction ([1]; Example 7: 400 atm SF—CO2, Au(III), 20 mg ligand)?
**A.** 78.1%

**Q.** What about the “Atomic Absorption” value [2, 6] of the same compound?
**A.** 0.001 A.U.

**Q.** What about the Extraction [2, 6] of the same compound?
**A.** 0%

**Q.** What about the “Atomic Absorption” value [2, 7] of the same compound?
**A.** 0.001 A.U

**Q.** What about the Extraction [2, 7] of the same compound?
**A.** ˜0.0%

**Q.** What about the “Atomic Absorption” value [2, 8] of the same compound?
**A.** 0.002 A.U

**Q.** And the Extraction [2, 8]?
**A.** ˜0.0%

**Q.** What about the “Atomic Absorption” value [2, 9] of the same compound?
**A.** 0.0001 A.U

**Q.** And the Extraction [2, 9]?
**A.** ˜0.0%

**Q.** And the “Atomic Absorption” value [2, 10]?
**A.** 0.002 A.U

**Q.** And the Extraction [2, 10]?
**A.** ˜0.0%

**Q.** And the “Atomic Absorption” value [2, 11]?
**A.** 0.002 A.U

**Q.** What about the Extraction [2, 11] of the same compound?
**A.** ˜0.0%

**Q.** And the “Extraction of Au(O) (in words)” value ([2]; Au(O) on filter paper, no oxidant)?
**A.** did not extract Au(O)

**Q.** And the “Atomic Absorption” value ([3]; 212 μl 1000 ppm Au standard 1.263 = 100%)?
**A.** 0.252 A.U. and 0.253 A.U.

**Q.** What about the Extraction ([3]; relative to gold oxidisable by Fe(III) (limiting reagent)) of the same compound?
**A.** 20.0%

**Q.** Which Extraction [1, 4] does the source give for CCCCCCCCNC(=S)NC [Comparative Example (b), N-methyl,N′-octyl thiourea] here?
**A.** 3.2%

**Q.** What about the gold extraction [1, 5] of the same compound?
**A.** 2.0%

**Q.** For NC(=S)Nc1cc(C(F)(F)F)cc(C(F)(F)F)c1 [Comparative Example (a)], which Extraction ([1]; 60° C., 200 atm SF—CO2, 60 μl 1000 ppm Au(III), 20 mg ligand) is on record?
**A.** 0%

**Q.** What about the Extraction [1, 4] of the same compound?
**A.** 0%

**Q.** What about the Extraction ([1]; 60° C., 300 atm SF—CO2, 60 μl 1000 ppm Au(III), 20 mg ligand) of the same compound?
**A.** ˜0.0%

**Q.** What about the Extraction ([1]; 60° C., 350 atm SF—CO2, 60 μl 1000 ppm Au(III), 20 mg ligand) of the same compound?
**A.** 0%

**Q.** What about the Extraction ([1]; 60° C., 400 atm SF—CO2, 60 μl 1000 ppm Au(III), 20 mg ligand) of the same compound?
**A.** 6.7%

**Q.** And the Extraction ([1]; 400 atm, 60° C. (temperature series))?
**A.** 8.8%

**Q.** And the Extraction ([1]; 400 atm, 80° C.)?
**A.** 0.7%

**Q.** What about the Extraction ([1]; 400 atm, 100° C.) of the same compound?
**A.** 2.0%

**Q.** And the Extraction ([1]; 400 atm, 120° C.)?
**A.** 1.6%

Values joined by “and” are separate entries in the source; they are usually repeats but may differ in a detail not shown here. Equal entries are not always repeated.
